Experimental data: PubChem BioAssay AID504847 (National Center for Advancing Translational Sciences (NCATS), 2011)
The whole screen tested about 400,000 compounds, of which about 3,700 (0.93%) were called active. Inconclusive means that the source gave no clear call. Such entries were picked first, then a sample of the others. The call rests on the fitted dose curve; in most records, active means well fitted inhibition curve with a large enough effect; inconclusive means small, poorly fitted or top-dose-only effect, or another doubt; inactive means no such curve, though single readings can be large or run the other way. Potencies of inconclusive entries are doubtful fits and often do not repeat. A structure can be active in one record and inactive in another.

By UniProt entry, the sequences of proteins in these tests, tags left out. Where a name states a change or a piece, a line headed by the entry shows the natural chain unless it says otherwise.
UniProt P11473: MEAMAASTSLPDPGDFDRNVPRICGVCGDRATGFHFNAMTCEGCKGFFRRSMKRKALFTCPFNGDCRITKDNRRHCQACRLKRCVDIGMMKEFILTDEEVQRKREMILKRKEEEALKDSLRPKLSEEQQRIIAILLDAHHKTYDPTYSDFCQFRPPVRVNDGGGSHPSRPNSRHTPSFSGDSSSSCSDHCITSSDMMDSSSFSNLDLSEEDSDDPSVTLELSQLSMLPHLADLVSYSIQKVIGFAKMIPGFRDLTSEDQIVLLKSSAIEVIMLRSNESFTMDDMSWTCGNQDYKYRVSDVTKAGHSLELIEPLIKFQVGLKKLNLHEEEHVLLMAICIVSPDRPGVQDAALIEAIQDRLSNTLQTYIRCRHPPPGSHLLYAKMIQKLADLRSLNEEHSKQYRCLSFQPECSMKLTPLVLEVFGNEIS

target: Vitamin D3 receptor (Homo sapiens) (UniProt P11473); assay: Inhibitors of the vitamin D receptor (VDR): qHTS; conditions: VDR-SRC2-3 peptide fluorescence polarization, 2 h; max response, negative = inhibition: stronger effect = lower value
Outline: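 The screen uses fluorescence polarization to detect compounds that interfere with recruitment of the SRC2-3 coactivator peptide to VDR; plates are read after 2 h at room temperature.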
On the % scale 0 is the no-effect control and ±100 the full control effect; potency means the concentration at half of the fitted maximal effect.

Potency, active:
CCc1cccc(NC(=O)CCS(=O)(=O)c2ccc(Br)cc2)c1 79.4 µM, Cc1cc(C)c2c(=O)n(CC(=O)NCCCN3CCN(c4ccccc4F)CC3)sc2n1 15.8 µM, Cc1ccc(C2=NOC(=O)/C2=C\c2ccccc2)cc1 31.6 µM, Cc1ccc(NC(=S)c2ccncc2)c(C)c1 35.5 µM, O=c1cc(-c2ccccc2)[nH]c2cc(Cl)ccc12 79.4 µM, C=CCOC(=O)c1[nH]c2c(c1C)C(=O)CC(c1ccco1)C2 (centres undefined) 79.4 µM

Potency, inconclusive:
COc1ccc2c(C)c(CC(=O)N3CCN(C(=O)C4COc5ccccc5O4)CC3)c(=O)oc2c1C (centres undefined) 39.8 µM [inhibitor, single point], CCOC(=O)C1CCCN(C(=O)c2ccc(-c3ccc([N+](=O)[O-])cc3)o2)C1 (centres undefined) 79.4 µM [inhibitor, partial curve, poor fit], Cc1cc(C)c2nc(-c3ccccn3)cc(C(=O)N3CCCC3)c2c1 79.4 µM [inhibitor, partial curve, poor fit], CC12CN3CC(C)(CN(C1)C3c1ccc(Cl)cc1Cl)C2=O (centres undefined) 79.4 µM [inhibitor, partial curve, poor fit], CCN(C(=O)CSc1nc(N)cc(=O)[nH]1)c1c(N)n(Cc2ccccc2)c(=O)[nH]c1=O 89.1 µM [inhibitor, single point], COc1ccc(-c2nc3cnc(N4CCN(C)CC4)nc3n(-c3ccc(OC)cc3)c2=O)cc1 89.1 µM [inhibitor, partial curve, poor fit], O=C(COC(=O)c1ccccc1Cc1ccccc1)Nc1ccc(SC(F)F)cc1 70.8 µM [inhibitor, partial curve, poor fit], CCOC(=O)C1=C(C)N=c2s/c(=C\c3ccc(OCC(=O)O)cc3)c(=O)n2C1c1ccccc1OC (centres undefined) 100 µM [inhibitor, single point], CC(C)(C)c1ccc(OCCOCCn2cnc3ccccc3c2=O)cc1 39.8 µM [inhibitor, partial curve, poor fit], Cc1ccc(S(=O)(=O)N(C)C)cc1NC(=O)C1CCCN(C(=O)c2ccc(Cl)cc2)C1 (centres undefined) 89.1 µM [inhibitor, single point], CCCSc1nnc(NC(=O)c2sc3nc(-c4cccs4)ccc3c2N)s1 15.8 µM [inhibitor, partial curve, poor fit], COc1cccc(C2NC(=O)c3sc(=S)n(-c4ccccc4)c3N2)c1 (centres undefined) 56.2 µM [inhibitor, partial curve, poor fit], CN(C)S(=O)(=O)c1cccc(COc2cccnc2[N+](=O)[O-])c1 89.1 µM [inhibitor, single point], O=C1Oc2ccccc2C(=O)/C1=C/c1ccccc1O 50.1 µM [inhibitor, partial curve, poor fit], COCCN(C(=O)COC(=O)CCC(=O)c1ccc(Cl)cc1)c1c(N)n(Cc2ccccc2)c(=O)[nH]c1=O 89.1 µM [inhibitor, single point], Cc1cccc(CS(=O)(=O)c2nnc([C@H](Cc3ccccc3)NC(=O)OC(C)(C)C)o2)c1 12.6 µM [inhibitor, full curve, poor fit], CCOC(=O)c1cc2c(=O)n3ccccc3nc2n(Cc2ccco2)c1=NC(=O)c1ccccc1Br 89.1 µM [inhibitor, partial curve], O=C(N[C@@H](Cc1ccccc1)c1nc2ccccc2[nH]1)c1cc([N+](=O)[O-])ccc1Cl 89.1 µM [inhibitor, partial curve, poor fit], CCOc1ccc(C2C(C#N)=C(N)SC(N)=C2C#N)c(OCC)c1 50.1 µM [inhibitor, partial curve], CCNc1ccc(Br)cc(C(=O)/C=C/c2ccc(Cl)cc2)c1=O 56.2 µM [inhibitor, partial curve, poor fit], CC1(C)C(=O)CC[C@@]2(C)C1CC(O)[C@@]1(C)C3=CC(=O)OC(c4ccoc4)[C@]3(C)CCC21 (some centres undefined) 89.1 µM [inhibitor, single point], CCCCN1CC(=O)N2[C@@H]3c4cc(OC)ccc4OC[C@@H]3[C@H](C(=O)OCC)[C@]2(C)C1=O 44.7 µM [inhibitor, partial curve, poor fit], COc1ccc(C(=O)Oc2ccc3oc(=O)sc3c2)cc1 79.4 µM [inhibitor, single point], O=S(=O)(Nc1nc2ccccc2nc1Cl)c1ccc2ccccc2c1 50.1 µM [inhibitor, partial curve, poor fit], Cc1cc(C(F)(F)F)c(C#N)c(N2CCOCC2)n1 35.5 µM [inhibitor, partial curve, poor fit], COc1cc(/C=C/C(=O)c2ccc3c(c2)OCO3)cc(OC)c1OC 63.1 µM [inhibitor, partial curve, poor fit]

Max response, negative = inhibition, inactive:
COc1ccccc1Nc1sc(C(=O)c2ccc(C)cc2C)c(N)c1S(=O)(=O)c1ccccc1 13.7%, COC(=O)c1cc(NC(=O)c2cc3c(-c4ccccc4F)nn(C)c3s2)cc(C(=O)OC)c1 -15.5%, Fc1cc(F)cc(-c2oncc2-c2nnnn2-c2ccccc2)c1 -19%, Cc1ccc([N+](=O)[O-])cc1NC(=O)CN(c1ccccc1)S(=O)(=O)N(C)C 6.99%, Cc1cc(C)c(OCCCCN2CCNCC2)c(C)c1 -10.2%, O=C(CCS(=O)(=O)c1ccccc1)NNC(=O)CSc1ccccc1F -5.32%, COc1cc(OC)cc(C(=O)NCCc2csc3nc(-c4ccccc4F)nn23)c1 1.56%
